The list does not hold the whole screen: it is rich in T/C values a quarter to a half above the control, in often repeated tests (any T/C) and in doses without a T/C. Further doses and runs are listed elsewhere. T/C gives the treated animals as a percentage of the vehicle group. Some doses have a count of surviving animals in place of a T/C: the source files T/C as zero there, which appears to mark a toxic dose or a test without result, not a measured value. Some survivor counts are full or nearly so, which does not show that the dose was tolerated: survival well below the control is almost never listed, so the zero probably covers shortened survival too. Survivors were counted at the toxicity check, usually on the fifth day, unless a day is given; later deaths do not show. Schedules are NCI's codes, taken here to give the interval after Q, in days (D) or hours (H), and the number of doses after X. Some entries hold several experiments; their values stand side by side, smallest first. Where survival is the endpoint, the PubChem record calls one and a half times the control and up active, and a quarter to a half above the control has no call in these data; cut-offs in other NCI protocols can differ. Brackets with × count equal records among those shown.
Test system: P388 leukemia ip, CD2F1 mice, survival T/C
Test: NCI In Vivo Anticancer Drug Screen. Data for tumor model P388 Leukemia (intraperitoneal) in CD2F1 (CDF1) mice
Details: T/C endpoint: median survival time, higher T/C = longer survival
[1] = dose: 100.0 mg/kg/injection, schedule: Q01DX005 (ip), vehicle: saline with Tween-80
[2] = dose: 200.0 mg/kg/injection, schedule: Q01DX005 (ip), vehicle: saline with Tween-80
[3] = dose: 200.0 mg/kg/injection, schedule: Q01DX009 (ip), vehicle: saline with Tween-80
[4] = dose: 120.0 mg/kg/injection, schedule: Q01DX005 (ip), vehicle: saline with Tween-80
[5] = dose: 50.0 mg/kg/injection, schedule: Q01DX009 (ip), vehicle: Klucel (hydroxypropylcellulose) (HPC)
[6] = dose: 100.0 mg/kg/injection, schedule: Q01DX009 (ip), vehicle: Klucel (hydroxypropylcellulose) (HPC)
[7] = dose: 200.0 mg/kg/injection, schedule: Q01DX009 (ip), vehicle: Klucel (hydroxypropylcellulose) (HPC)
[8] = dose: 200.0 mg/kg/injection, schedule: Q01DX005 (ip), vehicle: Klucel (hydroxypropylcellulose) (HPC)
[9] = dose: 200.0 mg/kg/injection, schedule: Q01DX009 (ip), vehicle: saline

CCCC(C)N(CC)CCNc1cc(OC)cc2cccnc12 (centres undefined)
survivor count (dose: 200.0 mg/kg/injection, schedule: Q01DX005 (ip), vehicle: saline): 0 of 5

Cc1c2ccnc(C#N)c2c(C)c2c1[nH]c1ccccc12
survivor count (dose: 12.5 mg/kg/injection, schedule: Q04DX003 (ip), vehicle: distilled water + Tween-80): 6 of 6
survivor count (dose: 25.0 mg/kg/injection, schedule: Q04DX003 (ip), vehicle: distilled water + Tween-80): 6 of 6
survivor count (dose: 50.0 mg/kg/injection, schedule: Q04DX003 (ip), vehicle: distilled water + Tween-80): 6 of 6
survivor count (dose: 100.0 mg/kg/injection, schedule: Q04DX003 (ip), vehicle: distilled water + Tween-80): 5 of 6
survivor count (dose: 200.0 mg/kg/injection, schedule: Q04DX003 (ip), vehicle: distilled water + Tween-80): 6 of 6

O=C(CCCCCCC(=O)ON1C(=O)CCC1=O)ON1C(=O)CCC1=O
T/C (dose: 50.0 mg/kg/injection, schedule: Q01DX005 (ip), vehicle: saline with Tween-80): 128 % of control
T/C [1]: 130 % of control (2×)
T/C [2]: 125 and 135 % of control
survivor count (dose: 400.0 mg/kg/injection, schedule: Q01DX005 (ip), vehicle: saline with Tween-80): 4 of 5

CN(C)CSCN(C)C
survivor count [3]: 2 of 6

C=CCN(CC=C)CCSC(=S)NCCOC
survivor count (dose: 400.0 mg/kg/injection, schedule: Q04DX003 (ip), vehicle: saline with Tween-80): 6 of 6

Cc1ccn2ncnc2c1
survivor count (dose: 400.0 mg/kg/injection, schedule: Q01DX009 (ip), vehicle: saline with Tween-80): 1 of 6

C/C(=N/N)c1ccc(Br)cc1
survivor count (dose: 25.0 mg/kg/injection, schedule: Q01DX009 (ip), vehicle: saline with Tween-80): 6 of 6

C[n+]1c(-c2cc(C(F)(F)F)cc(C(F)(F)F)c2)c2cc(N)ccc2c2ccc(N)cc21
T/C (dose: 3.13 mg/kg/injection, schedule: Q01DX009 (ip), vehicle: saline with Tween-80): 142 % of control
T/C (dose: 6.25 mg/kg/injection, schedule: Q01DX009 (ip), vehicle: saline with Tween-80): 132 % of control
T/C (dose: 40.0 mg/kg/injection, schedule: Q01DX009 (ip), vehicle: water): 145 % of control
survivor count (dose: 100.0 mg/kg/injection, schedule: Q01DX009 (ip), vehicle: saline with Tween-80): 6 of 6

COc1ccc2[nH]c(=O)c(C#N)c(C)c2c1
survivor count [1]: 3 of 6
survivor count [2]: 1 of 6

CCCN(C)CC(=O)NC(Cc1ccccc1)c1ccccc1 (centres undefined)
survivor count (dose: 240.0 mg/kg/injection, schedule: Q01DX005 (ip), vehicle: Klucel (hydroxypropylcellulose) (HPC)): 1 of 6

CC(C)C1=C2C3CC(O)C(C=O)=CC(=O)C3(C)CCC2(C)CC1 (centres undefined)
survivor count (dose: 50.0 mg/kg/injection, schedule: Q01DX009 (ip), vehicle: saline + alcohol): 3 of 6

C1=C(N2CCCC2)C(=[N+]2CCCC2)C(N2CCCC2)=C1
survivor count (dose: 60.0 mg/kg/injection, schedule: Q01DX005 (ip), vehicle: saline with Tween-80): 0 of 6
survivor count [4]: 0 of 6
survivor count (dose: 240.0 mg/kg/injection, schedule: Q01DX005 (ip), vehicle: saline with Tween-80): 0 of 6

Cc1ccc(S(=O)(=O)C(=S)N(C)N(C)C)cc1
T/C [5]: 126 % of control (2×)
survivor count [6]: 1 of 6
survivor count [7]: 0 of 6

CCCCOC(C(=O)OCCN(CC)CC)(c1ccccc1)c1ccccc1
survivor count [8]: 0 of 5

CC1=NCCN=C(C)C1[N+](=O)[O-]
survivor count [9]: 6 of 6

O=C(Nc1n[nH]c(NC(=O)c2ccccc2)n1)c1ccccc1
survivor count [8]: 6 of 6

CC1CCC(C)N(C)C1 (centres undefined)
survivor count [1]: 2 of 6
survivor count [2]: 0 of 6

Cc1c(NC(=O)CCl)c(=O)oc2c(C)c3occc(=O)c3cc12
survivor count [4]: 5 of 6

NC(=S)N/N=C\C12CC3CC(CC(C3)C1)C2
survivor count [3]: 1 of 6

CC(C)(C)c1cc2c(=O)o[s+]3oc(=O)c(c1)c23
survivor count [5]: 1 of 6
survivor count [6]: 0 of 6
survivor count [7]: 0 of 6

c1ccc([P+](CCN2Cc3ccccc3C2)(c2ccccc2)c2ccccc2)cc1
survivor count (dose: 25.0 mg/kg/injection, schedule: Q01DX009 (ip), vehicle: saline): 5 of 5 and 6 of 6

Cc1ccc2c(Nc3ccc(NS(C)(=O)=O)cc3C)c3ccccc3nc2c1
T/C (dose: 3.12 mg/kg/injection, schedule: Q01DX009 (ip), vehicle: saline): 131 % of control
T/C (dose: 6.25 mg/kg/injection, schedule: Q01DX009 (ip), vehicle: saline): 134 and 147 % of control
survivor count (dose: 50.0 mg/kg/injection, schedule: Q01DX009 (ip), vehicle: saline): 6 of 6
survivor count (dose: 100.0 mg/kg/injection, schedule: Q01DX009 (ip), vehicle: saline): 5 of 6
survivor count [9]: 2 of 6

Source: PubChem BioAssay AID330 (DTP/NCI, 2004)
